Test results as given in patent US20240016735A1, “IONIC LIQUIDS FOR DRUG DELIVERY” (PRESIDENT AND FELLOWS OF HARVARD COLLEGE, priority 2019, published 2024).

Test system: anti-human TNF-α mouse IgG1 (clone MAb11)
Settings: 1 h incubation, 48 h dialysis at room temperature; ELISA

| SMILES | CGLY concentration up to which impact on binding capability of TNF-α IgG1 is negligible |
| --- | --- |
| C[N+](C)(C)CCO.O=C([O-])CO [CGLY1:1, choline-glycolate] | ≤ 70 % v/v |
| C[N+](C)(C)CCO.O=C([O-])CO [CGLY2:1, choline-glycolate] | up to 60 % v/v |
